± gives the standard deviation of the averaged measurements. The list shows a part of the results.
Compound: Nc1nc2c(ncn2[C@@H]2O[C@H](COP(=O)(O)OP(=O)(O)OP(=O)(O)O)[C@@H](O)[C@H]2O)c(=O)[nH]1 [guanosine triphosphate]
Assay: NP40-soluble protein abundance relative to vehicle (solubility fold change) (ratio); higher = more soluble protein in presence of GTP
Method in brief: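 Each value is a fold change relative to the detergent-processed vehicle, calculated per replicate from vsn-normalised intensities. Jurkat crude lysate received eight concentrations (0.1 to 10 mM) for 10 min at room temperature and 3 min at 37 °C, then was solubilised in 0.8% NP40 with benzonase (60 min, 4 °C). The ultracentrifuged supernatant was TMT-labelled and run by LC-MS/MS in three independent experiments.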

Target	NP40-soluble protein abundance (concentration: 0.1mM)	NP40-soluble protein abundance (concentration: 0.5mM)	NP40-soluble protein abundance (concentration: 1mM)	NP40-soluble protein abundance (concentration: 2mM)	NP40-soluble protein abundance (concentration: 4mM)	NP40-soluble protein abundance (concentration: 6mM)	NP40-soluble protein abundance (concentration: 8mM)	NP40-soluble protein abundance (concentration: 10mM)
A0A0D9SFB1|A0A0D9SFE4|A0A0U1RQP1|Q05193 and related entries (UniProt Q05193)	0.924 ± 0.21	0.916 ± 0.22	0.946 ± 0.17	0.915 ± 0.21	0.961 ± 0.21	0.947 ± 0.21	0.884 ± 0.18	0.909 ± 0.18
A0A087X0M0|Q7Z5L2 and related entries (UniProt Q7Z5L2)	1.02 ± 0.061	1.013 ± 0.0096	1.02 ± 0.052	0.973 ± 0.014	1.04 ± 0.032	0.987 ± 0.051	0.953 ± 0.054	1 ± 0.058
A0A0U1RQK7|A0A0A0MSA7|O43432 and related entries (UniProt O43432)	1.05 ± 0.079	1.02 ± 0.031	1.07 ± 0.079	1.06 ± 0.075	1.09 ± 0.057	1.05 ± 0.035	1.09 ± 0.091	1.05 ± 0.031
A0A0A0MS70|A0A0A0MST0|H0Y4G9 and related entries (UniProt Q99836)	1.05 ± 0.15	1.02 ± 0.13	0.916 ± 0.034	0.979 ± 0.15	0.968 ± 0.14	0.929 ± 0.1	0.858 ± 0.13	0.901 ± 0.13
UniProt A4D1P6 and related entries	1.084 ± 0.0011	1.16 ± 0.032	1.1 ± 0.066	1.12 ± 0.088	1.093 ± 0.0044	1.14 ± 0.041	1.08 ± 0.16	1.05 ± 0.09
A0A0A0MSV9|A0A0G2JH37|A0A0G2JKZ1|A2AB90 and related entries (UniProt O15533)	0.986 ± 0.092	0.965 ± 0.072	0.959 ± 0.073	0.908 ± 0.085	0.921 ± 0.042	0.91 ± 0.054	0.903 ± 0.065	0.874 ± 0.079
A0A0G2JHC2|Q6NYC8 (UniProt Q6NYC8)	0.952 ± 0.042	0.945 ± 0.047	1 ± 0.044	1 ± 0.08	1 ± 0.064	1.07 ± 0.092	1.13 ± 0.029	1.14 ± 0.064
A0A0J9YXJ0|E9PC62 and related entries (UniProt O95319)	0.968 ± 0.069	0.948 ± 0.061	0.965 ± 0.063	0.926 ± 0.079	0.913 ± 0.074	0.891 ± 0.063	0.932 ± 0.057	0.911 ± 0.07
UniProt A2VDJ0-3|A2VDJ0-5|A2VDJ0-6|H0Y2M0	1.1 ± 0.11	1.06 ± 0.029	1.1 ± 0.073	1.11 ± 0.13	1.16 ± 0.15	1.15 ± 0.1	1.2 ± 0.09	1.1 ± 0.12
A0A0A0MR85|Q03013 (UniProt Q03013)	1.08 ± 0.068	1.07 ± 0.067	1.04 ± 0.078	1.03 ± 0.14	0.929 ± 0.058	0.985 ± 0.071	1 ± 0.11	0.989 ± 0.14
A0A0X1KG71|Q8WX92 (UniProt Q8WX92)	0.9588 ± 0.0051	0.964 ± 0.014	0.9785 ± 0.0083	0.973 ± 0.016	0.957 ± 0.025	0.96 ± 0.012	0.936 ± 0.024	0.946 ± 0.02
A0A087X1F9|E9PI02 and related entries (UniProt Q00613)	0.936 ± 0.043	0.877 ± 0.082	0.908 ± 0.079	0.843 ± 0.11	0.852 ± 0.1	0.887 ± 0.093	0.892 ± 0.11	0.868 ± 0.092
A2A2V1 and related entries (UniProt P04156+A2A2V1)	1.033 ± 0.0069	0.812 ± 0.037	0.952 ± 0.021	1.146 ± 0.0053	0.9432 ± 0.0034	0.944 ± 0.021	0.871 ± 0.015	1.01 ± 0.076
A0A088AWN8|E7EP87 and related entries (UniProt Q9UHQ1)	1.04 ± 0.11	0.988 ± 0.079	0.947 ± 0.13	0.98 ± 0.13	0.926 ± 0.14	0.89 ± 0.12	0.958 ± 0.045	0.89 ± 0.1
A0A0D9SFS3|P0619_C466|P0619_N466|Q02218 (UniProt Q02218)	1.11 ± 0.087	1.18 ± 0.14	1.15 ± 0.14	1.21 ± 0.19	1.23 ± 0.21	1.19 ± 0.22	1.19 ± 0.19	1.15 ± 0.16
A0A0C4DGS5|Q08379 and related entries (UniProt Q08379)	0.924 ± 0.011	0.935 ± 0.062	0.998 ± 0.08	0.969 ± 0.1	0.943 ± 0.068	0.976 ± 0.09	1.01 ± 0.047	1.05 ± 0.065
A0A0C4DGA2|O75521 and related entries (UniProt O75521)	0.984 ± 0.025	0.995 ± 0.045	0.971 ± 0.022	0.962 ± 0.046	0.926 ± 0.025	0.964 ± 0.033	0.966 ± 0.039	0.951 ± 0.021
A0A087X239|Q6PCB5 (UniProt Q6PCB5)	1.05 ± 0.03	1.13 ± 0.053	1.19 ± 0.058	1.24 ± 0.076	1.25 ± 0.047	1.24 ± 0.082	1.32 ± 0.15	1.29 ± 0.1
A0A0G2JIW1|P0DMV8 and related entries (UniProt P0DMV9+P0DMV8)	0.962 ± 0.063	0.972 ± 0.068	0.968 ± 0.081	0.948 ± 0.08	0.948 ± 0.075	0.942 ± 0.052	0.969 ± 0.081	0.951 ± 0.072
A0A0A0MRE5|Q9ULH1 and related entries (UniProt Q9ULH1)	1.06 ± 0.029	1.03 ± 0.026	1.08 ± 0.083	1.02 ± 0.082	0.987 ± 0.04	1.04 ± 0.07	1.03 ± 0.055	1 ± 0.023
A2IDA3 and related entries (UniProt P29372)	1.01 ± 0.08	1.04 ± 0.16	1.1 ± 0.13	1.14 ± 0.16	1.16 ± 0.1	1.28 ± 0.18	1.33 ± 0.067	1.37 ± 0.15
A0AVT1	1.02 ± 0.06	1.02 ± 0.046	0.938 ± 0.034	0.929 ± 0.072	0.915 ± 0.075	0.909 ± 0.04	0.879 ± 0.03	0.847 ± 0.07
A0A0C4DFP4|Q96IV0 and related entries (UniProt Q96IV0)	0.979 ± 0.033	1.02 ± 0.013	0.93 ± 0.01	0.937 ± 0.037	0.949 ± 0.028	0.943 ± 0.057	0.8946 ± 0.0062	0.888 ± 0.032
A0A0C4DGV5|O95218 and related entries (UniProt O95218)	0.89 ± 0.067	0.905 ± 0.072	0.943 ± 0.059	0.882 ± 0.091	0.854 ± 0.073	0.865 ± 0.076	0.865 ± 0.047	0.902 ± 0.09
CNOT1 (UniProt A5YKK6)	1.1 ± 0.013	1.09 ± 0.033	1.13 ± 0.032	1.19 ± 0.1	1.31 ± 0.18	1.3 ± 0.17	1.33 ± 0.15	1.34 ± 0.15
